Measured values: paper PMC9345960, “ERK1/2 inhibits Cullin 3/SPOP-mediated PrLZ ubiquitination and degradation to modulate prostate cancer progression” (Cell Death and Differentiation, 2022)

Amino acid sequences for entries named in this document (tags omitted). A change or cut given only in a name is not applied to a line headed by its entry.
UniProt O43791: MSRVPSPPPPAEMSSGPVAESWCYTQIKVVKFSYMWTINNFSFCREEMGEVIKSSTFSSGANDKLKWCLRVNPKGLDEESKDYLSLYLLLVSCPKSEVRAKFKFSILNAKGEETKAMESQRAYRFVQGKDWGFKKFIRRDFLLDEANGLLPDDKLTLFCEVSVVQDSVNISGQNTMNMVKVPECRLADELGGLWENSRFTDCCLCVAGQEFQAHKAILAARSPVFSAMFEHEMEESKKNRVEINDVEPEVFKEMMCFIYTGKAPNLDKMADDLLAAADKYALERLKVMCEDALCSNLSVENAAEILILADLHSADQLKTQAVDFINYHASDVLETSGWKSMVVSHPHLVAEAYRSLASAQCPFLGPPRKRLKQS

Target: HA-SPOP F133V (UniProt O43791)
Test: co-IP; anti-HA agarose IP (4 h, 4 °C, EBC lysis buffer) from transfected 293T cells: HA-PrLZ with Flag-tagged BTB proteins (Fig. 2a), HA-SPOP WT or mutants with Flag-PrLZ (Fig. 3d), HA-ERK1 or HA-ERK2 with Flag-PrLZ (Fig. 5e); in some panels 20 μM MG132 for 6 h

binding: no binding
B1: GST-PrLZ, wild type (bacterial) (natural protein, UniProt P55327 1-224, looked up)
chain: MDCREMDLYEDYQSPFDFDAGVNKSYLYLSPSGNSSPPGSPTLQKFGLLRTDPVPEEGEDVAATISATETLSEEEQEELRRELAKVEEEIQTLSQVLAAKEKHLAEIKRKLGINSLQELKQNIAKGWQDVTATSAYKKTSETLSQAGQKASAAFSSVGSVITKKLEDVKNSPTFKSFEEKVENLKSKVGGTKPAGGDFGEVLNSAANASATTTEPLPEKTQESL
notes: Prostate Leucine Zipper (PrLZ); also called GST-PrLZ WT; pGEX-4T-1-GST-PrLZ; source: E. coli BL21, purified (Glutathione Sepharose 4B)

These are yes or no findings as the source states them, for the method shown. In cells and extracts the contact can be indirect. Sequences can lack the tags named with a protein.
